The assay deals with T1, NUCB2-Flag (nucleobindin-2, Flag-tagged, from plasmid pc-NUCB2-Flag) (UniProt P80303).
T1 sequence: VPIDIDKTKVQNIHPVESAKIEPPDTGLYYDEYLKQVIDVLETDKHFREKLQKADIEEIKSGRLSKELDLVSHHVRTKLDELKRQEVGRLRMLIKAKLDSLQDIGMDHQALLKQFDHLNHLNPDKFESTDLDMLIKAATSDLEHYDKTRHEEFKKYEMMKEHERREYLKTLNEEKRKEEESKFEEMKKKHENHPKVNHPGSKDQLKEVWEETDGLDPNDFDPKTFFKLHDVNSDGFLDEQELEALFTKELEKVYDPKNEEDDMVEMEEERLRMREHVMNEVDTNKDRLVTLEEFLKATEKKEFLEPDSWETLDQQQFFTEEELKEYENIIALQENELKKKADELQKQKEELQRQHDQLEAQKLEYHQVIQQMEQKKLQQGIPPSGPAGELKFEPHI
In words: affinity purification with mass spectrometry; STC-1 cells transfected with pc-NUCB2-Flag or empty vector for 48 h; lysate precipitated with anti-Flag antibody; SDS-PAGE bands analysed by LC-MS.

The chains behind the UniProt entries cited, without tags or fusion partners.
UniProt P56450: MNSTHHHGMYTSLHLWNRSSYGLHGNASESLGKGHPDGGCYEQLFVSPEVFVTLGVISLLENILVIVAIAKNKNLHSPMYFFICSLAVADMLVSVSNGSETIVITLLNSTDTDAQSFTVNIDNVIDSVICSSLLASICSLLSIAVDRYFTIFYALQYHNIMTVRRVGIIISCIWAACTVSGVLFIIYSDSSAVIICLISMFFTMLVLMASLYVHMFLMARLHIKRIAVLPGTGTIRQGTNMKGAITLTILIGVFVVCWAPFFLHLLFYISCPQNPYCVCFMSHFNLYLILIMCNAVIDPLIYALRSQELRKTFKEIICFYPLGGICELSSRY

These are yes or no findings as the source states them, for the method shown. In cells and extracts the contact can be indirect. Here binding means that the protein was enriched with, or labelled near, the bait; the list need not be complete. Tags and fused reporters may be left off the sequences shown.

With “endogenous MC4R of STC-1 cells (from UniProt P56450 1-332) (receptor)”, the binding entry is listed as “binds”.
